Test results reported in PubChem BioAssay AID2685 (National Center for Advancing Translational Sciences (NCATS), 2010).
Among all 320,000 compounds or so, about 2,100 (0.66%) were called active. The inconclusive results got no clear call from the source; some entries with a clear call stand among them for comparison. The call rests on the fitted dose curve; in most records, active means well fitted inhibition curve with a large enough effect in the signal ratio, with a control signal flat (not every such curve was filed as active); inconclusive means small, poorly fitted or top-dose-only effect, or effect the other way, or a change in a side signal; inactive means flat fitted curve, though single readings scatter; the % refers to the signal ratio. Potencies beside an inconclusive call are fits to weak or partial responses and may not hold up.

Assay: qHTS Assay for Lipid Storage Modulators in Drosophila S3 Cells
Conditions: BODIPY lipid droplet fluorescence, 18-24 h, cells fed with added oleic acid; lipid storage change, negative = inhibition: at 46.1 µM (top of the series) unless noted
In short: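 Drosophila S3 cells loaded with oleic acid (400 uM, as added) and compounds at several concentrations; lipid droplets imaged by 488-nm laser-scanning cytometry, 500–530 nm intensity and object ratio to cell channel. Percent activity normalized to 20 uM Triacsin C.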
On the % scale 0 is the no-effect control and ±100 the full control effect; potency means the concentration at half of the fitted maximal effect.

Structure (SMILES)	Potency	lipid storage change, negative = inhibition
O=S(=O)(NC1CC1)c1ccc(Cl)cc1	inconclusive: 29.1 µM [activator, single point]	
Cc1sc2nc(CN3CCOCC3)[nH]c(=O)c2c1-c1ccccc1		inactive
NC(=O)C1(N2CCCCC2)CCN(CC(=O)Nc2ccccc2-c2ccccc2)CC1		inconclusive: 14%
COc1ccccc1CN(C)CC(=O)Nc1cccc(S(=O)(=O)N2CCCCC2)c1	inconclusive: 9.2 µM [falling, partial curve, poor fit]	
CC(C)(C)NC(=O)CN(CCN1CCOCC1)C(=O)CNS(=O)(=O)c1ccccc1	inconclusive: 29.1 µM [activator, partial curve]	
Cc1cc(C=O)c(C)n1-c1ccc(N2CCOCC2)c([N+](=O)[O-])c1	inconclusive: 0.103 µM [falling, full curve]	
COc1cc(OC)cc(-c2cc3nc(C)c(CCC(=O)NCc4ccccc4)c(C)n3n2)c1	inconclusive: 0.146 µM [rising, full curve, poor fit]	
CCOC(=O)CC(=O)CSc1nc2sc(C)cc2c(=O)n1Cc1ccco1	inconclusive: 18.4 µM [activator, single point]	
O=C1CS/C(=N\C(=O)N2c3ccccc3Sc3ccccc32)N1		inconclusive: -32.2%
COCc1cc(C)nc2sc(C(=O)Nc3ccccc3OC)c(N)c12	inconclusive: 29.1 µM [falling, single point]	
CC#CCCc1nc2ccccc2c(=O)n1N		inconclusive: 14.1%
Cc1ccc(C(=O)n2ncn(C)c2=S)cc1		inconclusive: -5.52%
O=C(Cc1ncc(C(F)(F)F)cc1Cl)NCc1ccco1		inconclusive: 13.7%
COc1ccc(-c2csc(Nc3ccc(O)cc3)n2)cc1		inconclusive: -22.5%
CCOC(=O)Cn1c(=NC(=O)CN2C(=O)CCC2=O)sc2cc(S(N)(=O)=O)ccc21		inconclusive: 53.3%
CCOC(=O)[C@H]1[C@H]2COc3ccc(C)cc3[C@@H]2N2C(=O)CN(Cc3ccc(C)cc3)C(=O)[C@@]12C		inconclusive: -0.34%
O=C(/C=C/c1cccc(C(F)(F)F)c1)Nc1cccc(C(F)(F)F)c1	inconclusive: 20.6 µM [falling, single point]	
Cn1nnc2cc(C(=O)Nc3ccc(Cl)cc3)ccc21		inconclusive: -8.96%
COCc1nnc(NC(=O)CCS(=O)(=O)c2ccccc2)s1	inconclusive: 29.1 µM [falling, single point]	
O=C(Nc1cccnc1)c1ccc2nc(-c3ccccc3)c(-c3ccccc3)nc2c1		inconclusive: 45%
NC(=O)c1cc([N+](=O)[O-])ccc1N1CCCCC1		inconclusive: 5.47%
C=CCNC(=O)COC(=O)c1c2c(nc3ccccc13)CCC2		inconclusive: 71.1%
O=C(c1cn[nH]c1)c1cc(F)ccc1O	inconclusive: 0.517 µM [falling, full curve]	
Cn1c(-c2ccc3c(c2)OCO3)cnc1NCc1cccc(Cl)c1		inconclusive: 5.25%

Structure (SMILES)	Potency	lipid storage change, negative = inhibition
Cc1ccc(C(=O)N/C(=C\c2cccc([N+](=O)[O-])c2)C(=O)NCc2ccncc2)cc1		inconclusive: 19.3%
COc1ccc(OCC(=O)Nc2ccc3c(c2)nc(CCNC(C)=O)n3C)cc1		inconclusive: -100%
CCNc1nc(NC(C)C)nc(NS(=O)(=O)c2ccc(N)cc2)n1		inconclusive: 54.2%
CCN(CC)CCn1c(N)cc(=O)[nH]c1=O		inconclusive: 34.7%
COc1ccc(C2C(C#N)=C(N)N3C(=C2C#N)Sc2ccccc23)cc1 (stereo not drawn)		inconclusive: 18.6%
CCOC(=O)C(C)n1cnc2c(cnn2-c2ccc(Cl)cc2)c1=O (stereo not drawn)	inconclusive: 1.16 µM [rising, partial curve, poor fit]	
CC(NC(=O)C1CCCN(S(=O)(=O)c2cnc[nH]2)C1)c1ccccc1 (stereo not drawn)		inconclusive: 77.6%
Clc1ccc(OCc2nn3c(C4CCCCC4)nnc3s2)cc1		inconclusive: 53.7%
CCOC(=O)N1CCC(NC(=O)C2CCN(S(=O)(=O)N3CCC(C)CC3)CC2)CC1	inconclusive: 16.4 µM [activator, single point]	
COc1ccc(CCC(=O)NCC(c2ccco2)N2CCc3ccccc32)cc1 (stereo not drawn)	inconclusive: 6.51 µM [rising, full curve, poor fit]	
Cc1cc(C)nc(NC(=O)c2ccc(C)o2)n1		inconclusive: 7.83%
COc1cc(C2C(C(C)=O)=C(O)C(=O)N2CCc2ccc(OC)c(OC)c2)ccc1O (stereo not drawn)	inconclusive: 3.66 µM [falling, full curve]	
CC1CCC2(CC1)NC(=O)N(CC(=O)N1CCN(C(=O)c3ccco3)CC1)C2=O (stereo not drawn)	inconclusive: 29.1 µM [activator, single point]	
CCCC(=O)NNC(=O)CCC(=O)NCc1ccccc1		inconclusive: 8.92%
Cc1nc(NCC2CCCO2)c2nnn(Cc3c(F)cccc3Cl)c2n1 (stereo not drawn)		inactive
CCNC(=O)c1nc[nH]c1C(=O)NCC	inconclusive: 3.66 µM [falling, full curve]	
O=C1NCCN/C1=C\C(=O)c1ccc(F)cc1		inconclusive: 5.55%
O=C1C(=O)N(Cc2cccnc2)C(c2ccccn2)/C1=C(/O)c1ccccc1 (stereo not drawn)	inconclusive: 29.1 µM [falling, single point]	
COc1ccc(C2C(C(N)=O)=C(C)Nc3ncnn32)cc1 (stereo not drawn)		inconclusive: -7.73%
O=C(Nc1ncc2c(n1)CC(c1cccc(Cl)c1)CC2=O)c1ccco1 (stereo not drawn)	inconclusive: 32.6 µM [falling, single point]	
CCc1ccc(NC(=O)C(C)OC(=O)c2cccc(S(=O)(=O)N3CCc4ccccc4C3)c2)cc1 (stereo not drawn)	inconclusive: 25.9 µM [falling, partial curve, poor fit]	
CC(=O)NCCn1c(SCC#N)nc2ccccc2c1=O		inactive
CCN(c1ccccc1)S(=O)(=O)c1ccc(OC)c(NS(=O)(=O)c2cccs2)c1	inconclusive: 29.1 µM [activator, single point]	
CCOC(=O)N1CCN(C2=C(NS(=O)(=O)c3ccc(NC(C)=O)cc3)C(=O)c3ccccc3C2=O)CC1	active: 18.4 µM	

3 entries drawn at random from those above, as already listed:
Structure (SMILES)	Potency	lipid storage change, negative = inhibition
COc1ccc(CCC(=O)NCC(c2ccco2)N2CCc3ccccc32)cc1 (stereo not drawn)	inconclusive: 6.51 µM [rising, full curve, poor fit]	
COc1cc(C2C(C(C)=O)=C(O)C(=O)N2CCc2ccc(OC)c(OC)c2)ccc1O (stereo not drawn)	inconclusive: 3.66 µM [falling, full curve]	
Cc1cc(C)nc(NC(=O)c2ccc(C)o2)n1		inconclusive: 7.83%
